# Library screen at single concentrations

From ChEMBL document CHEMBL3988442, “University of Dundee, Small-Polar-MMV Screening Library” (2021).

Results are given as percent effect.
How 0% and 100% were set is not recorded. Most values in the screen are low, and negative values occur.
Compounds were drawn at random from those tested, without regard to their results.
Two or more numbers in one place are separate tests of the same structure; such repeats can differ widely.

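Growth of Mycobacterium tuberculosis over 4 days (cholesterol / DPPC medium with tyloxapol); the read-out is not stated. Concentration: 50 µM. The record gives no direction; compounds that gave an IC50 in retests scored well above the rest, so higher reads as more growth inhibition. Of about 69,000 compounds tested this way, about 370 (0.54%) reached 50% or more in at least one test.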

| # | compound | effect |
|---|---|---|
| 1 | `COc1ccccc1OCC(=O)NCc1ncc(C)c(OC)c1C` | -9.3 |
| 2 | `O=C(c1ccccn1)N1CCN(C(c2ccccc2)C(F)(F)F)CC1` (stereo not given) | -13.78 |
| 3 | `CSCc1cc(F)ccc1CNC(=O)N1CCC(CO)CC1` | -16.72 & -13.07 |
| 4 | `NC(=O)C1CN(C(=O)Nc2ccccc2N2CCCCCC2)CCO1` (stereo not given) | 3.383 |
| 5 | `Cc1nccn1C1CCCN(C(=O)c2cc(Cl)c3c(c2)OCO3)C1` (stereo not given) | -7.984 |
| 6 | `Cc1cccc(C(C(=O)N(C)Cc2ccco2)N(C)C)c1` (stereo not given) | -13.05 & -1.113 |
| 7 | `CN(C)CCN1C(=O)CCC12CCN(Cc1cccs1)CC2.O=C(O)C(F)(F)F.O=C(O)C(F)(F)F` | 5.81 |
| 8 | `Cc1cc(C)n(CCCNC(=O)C(C)NC(=O)c2ccccc2Cl)n1` (stereo not given) | -16.21 |
| 9 | `CCOCc1cnc2n1CCN(C(=O)Cc1ccco1)C2C` (stereo not given) | 8.114 |
| 10 | `O=C(CSc1ccc(F)c(F)c1)NS(=O)(=O)c1ccc2c(c1)OCCO2` | 2.375 |
| 11 | `CCCc1cncnc1N1CCC(NCc2ccncc2)CC1` | -6.838 |
| 12 | `CCS(=O)(=O)N1CCN(C(C)(C)CO)CC1` | 7.663 |
| 13 | `COc1ccc(C(CNC(=O)NCc2csc(C)n2)N(C)C)cc1` (stereo not given) | -9.988 |
| 14 | `CN(C)c1nccc(N(C)C2CCN(CC3CCOC3)CC2)n1` (stereo not given) | 4.57 & 4.803 |
| 15 | `[H][C@]12CCN(C(=O)c3cc[nH]n3)CC[C@@]1([H])S(=O)(=O)N(Cc1cccnc1)C2` | -1.703 |
| 16 | `O=C(Cc1ccc(F)cc1)NCCc1ccoc1` | 4.58 |
| 17 | `CCn1nc(CC(C)C)cc1C(=O)N1CCOCC(O)C1` (stereo not given) | 4.011 |
| 18 | `COCCOCC(=O)Nc1cccc(CN(C)C(C)=O)c1` | -34.37 |
| 19 | `CCOc1ncccc1NC(=O)N1CCN(c2cccc(C)c2C)CC1` | -4.109 |
| 20 | `O=C(Nc1ccc(OCc2cccc(F)c2)c(F)c1)C1COCCO1` (stereo not given) | 17.02 |
| 21 | `c1cc(CN2CCSC3(CCCCC3)C2)no1` | 10.42 |
| 22 | `CC(=O)N1CCN(c2ncnc3cc4c(cc23)OCCO4)CC1` | 8.636 |
| 23 | `COc1ccc(C2CC(=O)Oc3cc(C)[nH]c(=O)c32)cc1` (stereo not given) | 1.159 |
| 24 | `CC(NC(=O)N1CCN(c2cccs2)CC1)c1ccncc1` (stereo not given) | 9.414 |
| 25 | `CC(C)(C)C(O)CN1CCN(Cc2cccc(C#N)c2)CC1` (stereo not given) | 4.769 |
| 26 | `O=C(NC1CC1)N1CCc2ncc(CN3CCOCC3)n2CC1.O=C(O)C(F)(F)F` | -7.77 & -11.03 |
| 27 | `CC(C)=CCN1CCC(c2nccn2Cc2cscn2)CC1` | 9.9 |
| 28 | `CCc1c(C(=O)N2CCC3(CC(=O)NC3=O)C2)csc1C` (stereo not given) | 0.8162 |
| 29 | `CC(=O)Nc1cc(CCC2CCN(C(=O)c3ccccn3)CC2)ccn1` | -1.708 & 6.267 |
| 30 | `COc1ccc(C2CCCCCN2S(=O)(=O)N(C)C)cc1` (stereo not given) | -2.679 |
| 31 | `O=C(Nc1cnn(CCN2CCOCC2)c1)c1ccccn1` | 5.051 |
| 32 | `COC(=O)c1ccc(OC)c(CN2CCN(CC(C)C)C(=O)C2C)c1` (stereo not given) | -8.03 |
| 33 | `Cc1ncc(CNCC(C)O)c2cc(C(=O)c3ccc(Br)cc3)oc12.Cl` (stereo not given) | 13.19 |
| 34 | `Cc1ccc(CN(C)C(=O)c2scnc2C)cc1` | 1.648 |
| 35 | `O=C(CCCNC(=O)NCC1CCCO1)Nc1ccc(Cl)cc1` (stereo not given) | -2.216 |
| 36 | `O=C(NCc1ccccc1)c1nn(C2CCS(=O)(=O)C2)c2c1CCCC2` (stereo not given) | -20.9 |
| 37 | `COC(=O)c1ccc(N2CCN(CCN3CCOCC3)C(C)C2)cc1` (stereo not given) | -5.803 |
| 38 | `CCC(C)(C)NC(=O)Cn1nc(C)nc1-c1ccccc1` | -27.58 |
| 39 | `[H][C@]12CN(CCCSC)CC[C@@]1(O)CCN(c1ncccn1)C2` | -0.1637 |
| 40 | `c1cc(NCc2ccsc2)cc(-c2nnc[nH]2)c1` | 12.94 |
| 41 | `COc1ccc2c(c1)CC(C1CCOCC1)N(C(=O)c1cnccn1)C2` (stereo not given) | -10.42 & 1.354 |
| 42 | `Cc1csc(CNc2nc3c(s2)c(C)nn3C)n1` | -5.36 & -0.7934 |
| 43 | `COC(=O)c1oc(CNC(C)(C)c2ccc3c(c2)OCO3)cc1C` | -2.697 |
| 44 | `CN(C)c1ccc(NC(=O)CN2CCS(=O)(=O)CC2)cn1` | 1.109 |
| 45 | `CCCC(=O)N1CCC(c2nn(C)c(=O)n2-c2ccccc2)CC1` | 7.359 |
| 46 | `CC/N=c1\nc(NCC)nc2n1C(O)(Nc1cc(Cl)ccc1Cl)CS2` (stereo not given) | -26.94 |

5 of the entries, repeated:

- O=C(CSc1ccc(F)c(F)c1)NS(=O)(=O)c1ccc2c(c1)OCCO2 : 2.375%
- CC(=O)Nc1cc(CCC2CCN(C(=O)c3ccccn3)CC2)ccn1 : -1.708% & 6.267%
- Cc1cc(C)n(CCCNC(=O)C(C)NC(=O)c2ccccc2Cl)n1 (stereo not given) : -16.21%
- CCOCc1cnc2n1CCN(C(=O)Cc1ccco1)C2C (stereo not given) : 8.114%
- Cc1cccc(C(C(=O)N(C)Cc2ccco2)N(C)C)c1 (stereo not given) : -13.05% & -1.113%